The values below are quoted from earlier work in patent US20100137232A1 (priority 2004, published 2010).

The test system of this series is plasma proteins, mainly albumin. The conditions noted are these: cited from earlier work.

For the compound `NS(=O)(=O)c1cc(C(=O)O)c(NCc2ccco2)cc1Cl` [Frusemide, 4-chloro-N-furfuryl-5-sulfamoylanthranilic acid], the unbound fraction (at therapeutic concentrations) is on record as 2.3-4.1%. Where the note is “plasma concentrations ranging from 1 to 400 μg/ml, healthy individuals”, the “bound to plasma proteins” value was 91-99%.
